Measured values taken from US20200407442A1.
No constants are given. Whether binding was seen depends on the method and setting. Some binding calls cover weakened binding; strength is not graded here. For some assays here: Sequences can lack the tags named with a protein.

Experiments:
[1] = molecular target: T1, mFc-tagged LAG-3 protein (human) (UniProt P18627); assay: ELISA blocking: antibody mixed with mFc-tagged LAG-3, binding of LAG-3 to plate-coated Galectin-3
T1 sequence: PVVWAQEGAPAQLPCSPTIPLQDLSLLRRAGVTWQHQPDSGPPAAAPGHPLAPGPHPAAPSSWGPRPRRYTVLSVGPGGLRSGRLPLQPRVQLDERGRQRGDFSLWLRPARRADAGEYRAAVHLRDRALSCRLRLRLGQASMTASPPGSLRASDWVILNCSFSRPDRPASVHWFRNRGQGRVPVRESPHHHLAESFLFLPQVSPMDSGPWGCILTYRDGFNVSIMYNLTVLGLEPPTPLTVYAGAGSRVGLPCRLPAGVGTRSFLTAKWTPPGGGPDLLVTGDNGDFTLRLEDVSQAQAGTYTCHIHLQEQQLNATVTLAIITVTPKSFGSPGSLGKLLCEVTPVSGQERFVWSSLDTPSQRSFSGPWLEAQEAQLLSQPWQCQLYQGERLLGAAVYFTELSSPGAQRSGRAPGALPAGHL

[2] = molecular target: T1, mFc-tagged LAG-3 protein (human); assay: FACS blocking: antibody pre-incubated with mFc-tagged LAG-3, binding of LAG-3 to MHC-II on Raji cells detected with anti-mouse IgG Fc-PE
[3] = molecular target: T1, mFc-tagged LAG-3 protein (human); assay: ELISA blocking: antibody mixed with mFc-tagged LAG-3, binding of LAG-3 to plate-coated human LSECtin
[4] = molecular target: T2, human LAG-3 protein (SPR analyte) (human) (UniProt P18627); assay: SPR
T2 sequence: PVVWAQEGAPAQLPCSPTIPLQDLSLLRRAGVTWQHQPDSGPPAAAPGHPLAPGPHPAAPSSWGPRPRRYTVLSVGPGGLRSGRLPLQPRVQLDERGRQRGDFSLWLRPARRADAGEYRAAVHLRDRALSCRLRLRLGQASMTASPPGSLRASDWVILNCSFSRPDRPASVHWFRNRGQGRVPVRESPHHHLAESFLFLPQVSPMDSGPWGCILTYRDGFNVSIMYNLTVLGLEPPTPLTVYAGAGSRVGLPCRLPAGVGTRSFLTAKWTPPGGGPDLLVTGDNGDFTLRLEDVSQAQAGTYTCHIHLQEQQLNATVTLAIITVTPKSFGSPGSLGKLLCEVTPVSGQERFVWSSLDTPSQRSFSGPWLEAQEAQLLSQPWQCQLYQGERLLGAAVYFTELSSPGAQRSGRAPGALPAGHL

Measured: binding

B1: 1.53.3-uAb-IgG4k (antibody, V domains shown)
VH: QVQLQQWGAGLLKPSETLSLTCGVYGGSFSGYYWSWIRQPPGMGLEWIGEINHRGNTNYNPSLKSRVTISEDTSKNQFSLRLSSVTAADTAVYFCTRGEDYSDYDYYGDFWGQGTLVTVSS
VL: EIVLTQSPATLSLSQGERATLSCRASQSISSYLAWYQQKPGQAPRLLIYAASNRATGIPARFSGSGSGTDFTLTISSLEPEDFAIYYCQQRSNWPLTFGGGTKVEIK
binds: all assays above

B2: 3.40.19-uAb-IgG4L (antibody, V domains shown)
VH: QLQLQESGPGLVKPSETLSLTCTVSGDSISSTSYYWGWIRQPPGKGLEWIGSFYYSGSTYYNPSLKSRVTISVDTSKNQFSLKLNSVTAADTAVYYCARMQLWSYDVDVWGQGTTVTVSS
VL: QSALTQPASVSGSPGQSITISCTGTSSDVGGYDYVAWYQQHPGKVPKLMIYDVSERPSGVSNRFSGSKSGNTASLTISGLQAEDEADYYCSSYTSTTTLVVFGGGTKLSVL
binds: all assays above
